Data: patent publication US5164391A, “Hydantoin derivatives for treating complications of diabetes and circulatory diseases” (priority 1989, dated 1992)
pIC50: −log10 of the molar value. Like-named read-outs stand apart in the source and are kept apart here.

System: thoracic aorta
Experiment: Action to the aorta of guinea pig (relaxation of contracted spiral samples)
Set-up: species or system Hartley guinea pigs
Conditions: Cavia porcellus
Source text: Hartley guinea pigs (body weight of 300-500 g) were rendered unconscious fainted by knocking their head and fixed upwardly. A thoracic aorta was taken out to prepare spiral samples, each having size of about 2×25 mm. The sample was suspended in a Magnus tube under a load of about 1 g and upper end of the sample was connected through a silk thread to a FD pick-up to record a change in isometric tension.
Composition of Krebs-Henseleit solution:
Prior to the experiment, the sample in the Magnus tube was left to stand, as it was, for 60 to 90 minutes and in such period of time, the Krebs-Henseleit solution was exchanged to fresh one at an interval of 20 to 30 minutes.
When the contraction of the sample became constant, the compound to be tested was gradually added in a amount starting at a concentration of 10^-8, to […] to observe the contraction of the sample. Finally, papaverine was added therein, so as to make its final concentration of 2×10^-5 g/ml, to check and record also the relaxing reaction or atony caused by the papaverine.

Q: What does the source list for `C(=C\c1ccccc1)/CN1CCN(C(c2ccccc2)c2ccccc2)CC1` [Cinnarizine, reference compound]?
A: pIC50 (read-out: IC50 KCl contraction (50% relaxing)): 3.70; pIC50 (read-out: IC50 N.E. contraction (50% relaxing)): 4.00
